Library screen at single concentrations

From ChEMBL document CHEMBL3988442, “University of Dundee, Small-Polar-MMV Screening Library” (2021).

Values are the deposited “Percent Effect”, in %. How 0% and 100% were set is not recorded. Most values in the screen are low, and negative values occur. The compounds are a random part of those screened. Two or more numbers in one place are separate tests of the same structure; such repeats can differ widely. A dash means the value is not listed here; it may have been measured.

A: 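Whole-parasite assay of Trypanosoma brucei over 72 hours; the read-out is not stated. Tested at 30 µM. The record gives no direction; compounds that gave an IC50 in retests scored well above the rest, so higher reads as stronger inhibition. Values scatter widely below zero; nearly all retest evidence comes from the higher of the two concentrations used. Size under these conditions: about 64,000 compounds, about 940 of them at 50% or above in at least one test.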
B: 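Assay of Toxoplasma gondii numbers, read through their beta-galactosidase reporter with a colour substrate. Concentration: 10 µM. The record gives no direction; the compounds picked for IC50 retests had high values, so higher reads as fewer parasites. About 67,000 compounds were tested under these conditions; 0.38% (about 260) showed 50% or more at least once.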
C: 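Cell assay of Leishmania donovani living inside macrophages; the read-out is not stated. Tested at 30 µM. Higher reads as stronger inhibition (inferred: compounds with an IC50 in retests scored well above the rest). Size under these conditions: about 69,000 compounds, about 1,000 of them at 50% or above in at least one test.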

SMILES,A,B,C
Cc1nccn1CC1CCCN1S(=O)(=O)Cc1ccccc1 (stereo unspecified),-12.7%,-,41.79%
COC(=O)CCNC(=O)c1coc(COc2ccc(F)cc2)n1,-28.04%,-7.588%,1.348%
CC(C)C(=O)N1CCc2c(CN(C)Cc3ccco3)cncc2C1.Cl.Cl,-5.206%,2.899%,11.72%
Cc1ccc(CN2CCC(c3nnc(CN4CCCCC4)n3C)CC2)o1,-16.6%,-6.434%,31.25%
CCOCCN1C[C@H](c2cccc(OC)c2)[C@@H](N)C1,-22.72%,1.902%,15.81%
CCCOCCNc1nc2c(s1)c(C)nn2C,-39.85%,-4.151%,-18.43%
Fc1ccc(C2(CNC3=NCCCN3)CCC2)cc1.I,-26.82%,-11.24%,12.54%
COc1ccc(-c2cc(CN)nc3ccnn23)cc1.Cl,-10.95%,0.3024%,4.676% & 18.62%
Cc1ccc(C2CN(c3nnc(C(F)F)s3)CCO2)c(C)c1 (stereo unspecified),5.158%,1.408%,-23.35%
O=C(CN1CCOC1=O)N1CCc2nnc(Cc3ccccc3)n2CC1,-58.15%,1.273%,8.525%
CSc1nccn1-c1cccc(C(=O)NCCN2CCS(=O)(=O)CC2)c1,-19.58%,-16.48%,16.37%
[H][C@@]12CS(=O)(=O)C[C@]1([H])N(Cc1ccc3occc3c1)CCN2C(=O)N(C)C,-20.65%,-10.72%,15.08%
CCS(=O)(=O)NCCCNc1ncnc2cc(F)c(F)cc12,-44.22%,-1.538%,-13.44%
O=C(O)C(F)(F)F.[H][C@]12CN(Cc3ccccc3OC)C[C@@]1([H])OCCN(C(C)=O)C2,-77.53%,-11.67%,0.7673%
CC(=O)N1CCC(n2ccc(-c3cnc(NCC(C)C)nc3)n2)CC1,77.59%,-23.83%,-3.809% & -0.8737%
O=C(O)C(F)(F)F.O=C(O)C(F)(F)F.O=C(O)C(F)(F)F.[H][C@@]12CN(Cc3ccco3)C[C@]1([H])[C@@H](OC)CCN2Cc1ccccn1,42.12%,-1.554%,21.54%
CN1CC(=O)N(c2cccc(F)c2)CC12CCN(CCO)C2.O=C(O)C(F)(F)F.O=C(O)C(F)(F)F (stereo unspecified),-11.83%,-2.235%,-1.946%
COC(=O)CN1CCN(c2nc3c(s2)c(C)nn3C)C(C)C1=O (stereo unspecified),-11.91%,0.1732%,-14.86%
COC1CCN(C(=O)c2nn(-c3ccc(C(C)C)cc3)cc2O)CC1,-,-7.939%,-37.83%
CCc1nc(CN2CCCC(NCc3nnc(C4CC4)o3)C2)no1 (stereo unspecified),9.63%,-4.784%,7.931%
Cc1nnc(NCc2ccccc2S(=O)(=O)N(C)C)c(C#N)c1C,-,24.57%,7.461%
Cc1occc1C(=O)Nc1cnn(CCN2CCOCC2)c1,-28%,-0.2368%,21.74%
CCN(CC)C(=O)[C@@H]1C[C@@H](NC(=O)c2cccn2C2CC2)CN1C,-6.99%,-2.781%,14.55%
COc1ccccc1OC1(C(=O)O)CCN(c2cnccn2)CC1,-9.399%,7.262%,-65.01%
O=C1OCCN1CCSc1nnnn1CC(F)(F)F,-,1.758%,-9.089%
COc1cccc(-c2noc(-c3ccc(N4CC(N)C4)nc3)n2)c1OC,3.337%,6.343%,16.96%
CCC1CCCCN1Cc1nc2c(cnn2C)c(=O)[nH]1 (stereo unspecified),-7.64%,0.9153%,-14.66%
O=c1nc(SCc2ccc(Cl)cc2)c2c(n1CCO)CCC2,-0.4409%,2.76%,-48.36%
Fc1ccc(CNCc2nnc3n2CC(C(F)(F)F)CC3)c(F)c1 (stereo unspecified),4.284%,5.761%,5.822% & -20.49%
CC(NCc1ccncc1)c1ccc(N2CCN(C)CC2)c(F)c1.Cl (stereo unspecified),-59.49%,-3.686%,-0.6983%
O=C(CN1CCCC1c1noc(C2CC2)n1)NCCc1ccsc1 (stereo unspecified),-3.66%,19.94%,-19.87%
Cc1cccc(CC(=O)N2CCCC(c3n[nH]c4nccnc34)C2)c1 (stereo unspecified),-11.05%,3.138%,5.345%
CC(=O)NCC(=O)N1CCN(Cc2ccncc2)c2ncccc2C1,-18.02%,0.3036%,-19.08%
CN(C)C(=O)NC1COC2(CCN(S(=O)(=O)c3ccccc3)CC2)C1 (stereo unspecified),-9.272%,-8.515%,34.37%
Cc1ccccc1N1CCCN(C(=O)CCCS(N)(=O)=O)CC1,-87.64%,4.16%,8.949%
N#Cc1ccccc1OCCN1CCCCC1C(=O)N1CCOCC1 (stereo unspecified),-,-0.05671%,-2.802%
O=C(O)C(F)(F)F.[H][C@@]12CCN(c3cccnc3)C[C@]1([H])CN(C(=O)C1CCCC1)C2,-18.07%,12.35%,34.11%
COc1c(C)cnc(CNC(=O)c2cc(C)nc3c2c(C)nn3C)c1C,-39.7%,-5.172%,22.03%
[H][C@]12C[C@@H](CN3CCCC3)N(C)[C@@]1([H])CCN(C(=O)c1ccsc1)C2,-30.27%,8.053%,16.05%
[H][C@@]12COC[C@]1([H])[C@@H](OCc1csc(C)n1)CN2C(=O)c1cccnc1,6.436%,23.05%,25.6%
[H][C@@]12OCCN(Cc3ccc(F)cc3)[C@@]1([H])CC[C@H]2OCC,-5.832%,15.63%,0.2596%
Cc1ccc(CNc2cnn(CC(F)F)c2)cc1C,-12.07%,-12.57%,-0.6041%
Cc1ccc(C2CSCCN2C(=O)c2ccncc2)cc1 (stereo unspecified),-,16.64%,-1.831%
Cc1ccc(Oc2ncccc2C(=O)N(C)CC2OCCO2)c(C)c1,4.367%,20.95%,40.55%
CC(C)Cc1cc(C(=O)N2CCCC(n3cncn3)C2)[nH]n1 (stereo unspecified),6.769%,-1.631%,-9.857%
CC(C)N(CC(N)=O)Cc1csc(COc2ccc(F)cc2)n1,6.894%,-,48.02%
[H][C@@]12CN(CCOC)C[C@]1([H])[C@H](OC)CCN2C(=O)c1cccc(OC)c1,19.7%,-7.188%,30.81%
CC1(C)CNC(=O)CN(C(=O)CCc2ccccc2)C1,-8.061%,-30.92%,22.01%
O=C(NCc1ccncc1)N1CC(Cc2ccccc2F)C1,-13.1%,-6.43%,-30.68%
Cc1cccc(-n2nnnc2C2(NCc3ccco3)CCCCC2)c1,-7.279%,-6.07%,19%
O=C(O)C(F)(F)F.O=C(O)C(F)(F)F.O=C(O)C(F)(F)F.O=C(O)C(F)(F)F.[H][C@]12CC(Cn3cccn3)N(C)[C@@]1([H])CCN(Cc1cccnc1)C2 (stereo partly specified),-14.63%,30.27%,-3.799%
CS(=O)(=O)c1ccccc1C(=O)NCCCN1CCc2ccccc2C1,-21.71%,2.731%,-4.948%
Cc1cc(C2CCC2)nc(NCCC23CCCN2CCC3)n1,-7.68%,-5.119%,39.54%
CC(C)N1CC(C(=O)N2CCC(Oc3ccccc3Cl)CC2)CC1=O (stereo unspecified),9.741%,-5.786%,19.77%
CC(C)c1ccc(CCC(=O)N(C)C2CCN(C)C2=O)cc1 (stereo unspecified),-32.37%,11.98%,-11.03%
Cn1nnnc1SCCNC(=O)C1CCN(C(=O)C2CC2)CC1,-86.83%,2.887%,14.03%
CC(NC(=O)CCCn1cnc2ccccc2c1=O)c1ncn[nH]1 (stereo unspecified),-11.31%,-0.6408%,20.48%
CC(C(=O)NC1CC1)S(=O)(=O)Cc1csc(-c2cccs2)n1 (stereo unspecified),-43.18%,0.6079%,-8.167%
O=C(O)C(F)(F)F.c1ccc(C[C@H]2CN(Cc3nccs3)CC[C@@H]2OCC2CC2)cc1,31.04%,6.759%,-51.66%
O=C(O)C(F)(F)F.O=C(O)C(F)(F)F.O=C(O)c1cc2c(nc1-c1cncnc1)CCN(C1CCOC1)CC2 (stereo unspecified),-37.52%,6.885%,-3.917% & -5.424%
CN1CCN(c2nc(-c3cnn(C)c3)cs2)CC1,-14.69%,13.48%,16.4%
O=C(c1cccnc1)N1CCSCC1,-1.359%,4.987%,-9.431%
CC(C)N(C)Cc1cc(=O)n2c(n1)CN(C(=O)c1ccc[nH]1)CCC2,15.71%,-14.02%,19.91%
c1ccc2c(Cc3nnc([C@H]4CCN(C5CCCCC5)C4)o3)c[nH]c2c1,-1.986%,0.6197%,14.52%
CC(=O)NCCC(=O)Nc1cccc(N2CCN(CC3CC3)CC2)c1,-28.18%,-8.947%,21.79%
Cc1cccc(OCc2ccc(C(=O)N3N=CCC3(O)C(F)(F)F)o2)c1 (stereo unspecified),67.46%,93.63%,-85.21%
O=C(C1CCOC1)N1CCC2(CCCNC2)CC1 (stereo unspecified),3.396%,0.03698%,7.777%

The first 6 entries again:

{"smiles": "Cc1nccn1CC1CCCN1S(=O)(=O)Cc1ccccc1", "stereo": "stereo unspecified", "A": -12.7, "C": 41.79}
{"smiles": "COC(=O)CCNC(=O)c1coc(COc2ccc(F)cc2)n1", "A": -28.04, "B": -7.588, "C": 1.348}
{"smiles": "CC(C)C(=O)N1CCc2c(CN(C)Cc3ccco3)cncc2C1.Cl.Cl", "A": -5.206, "B": 2.899, "C": 11.72}
{"smiles": "Cc1ccc(CN2CCC(c3nnc(CN4CCCCC4)n3C)CC2)o1", "A": -16.6, "B": -6.434, "C": 31.25}
{"smiles": "CCOCCN1C[C@H](c2cccc(OC)c2)[C@@H](N)C1", "A": -22.72, "B": 1.902, "C": 15.81}
{"smiles": "CCCOCCNc1nc2c(s1)c(C)nn2C", "A": -39.85, "B": -4.151, "C": -18.43}